These are yes or no findings as the source states them, for the method shown. Binding seen in cells or lysates may run through a third protein. Some entries that bind do so weakly or less than the wild type. Where a sequence is shown, tags or fusion partners need not be part of it. Values belong to the molecule of their own block, whether it stands above or below them.
Biological target: T1, FLAG-tagged WT full-length DCAF13 (DDB1- and CUL4-associated factor 13) (UniProt Q9NV06)
T1 sequence: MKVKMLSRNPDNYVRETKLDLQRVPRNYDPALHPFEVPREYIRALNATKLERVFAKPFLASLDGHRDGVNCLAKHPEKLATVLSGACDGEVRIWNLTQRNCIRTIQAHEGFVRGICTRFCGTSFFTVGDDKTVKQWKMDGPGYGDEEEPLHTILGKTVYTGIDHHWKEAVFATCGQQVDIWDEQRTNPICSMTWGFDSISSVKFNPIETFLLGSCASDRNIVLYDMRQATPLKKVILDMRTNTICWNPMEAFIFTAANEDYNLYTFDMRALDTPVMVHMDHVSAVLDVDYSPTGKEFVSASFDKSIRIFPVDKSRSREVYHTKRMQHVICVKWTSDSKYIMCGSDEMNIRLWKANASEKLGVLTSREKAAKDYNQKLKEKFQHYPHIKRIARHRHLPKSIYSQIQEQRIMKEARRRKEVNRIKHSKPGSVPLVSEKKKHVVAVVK
Assay: co-IP; lysate of 293T cells overexpressing FLAG-DCAF13 or FLAG-DCAF13^SOF1Δ; anti-FLAG or IgG on Protein A/G magnetic beads, overnight at 4 °C, six washes with PBS + 0.5% Tween-20; western blot

Protein sequences, listed by entry. Tags and fused reporters are not part of them.
UniProt Q9NYV6: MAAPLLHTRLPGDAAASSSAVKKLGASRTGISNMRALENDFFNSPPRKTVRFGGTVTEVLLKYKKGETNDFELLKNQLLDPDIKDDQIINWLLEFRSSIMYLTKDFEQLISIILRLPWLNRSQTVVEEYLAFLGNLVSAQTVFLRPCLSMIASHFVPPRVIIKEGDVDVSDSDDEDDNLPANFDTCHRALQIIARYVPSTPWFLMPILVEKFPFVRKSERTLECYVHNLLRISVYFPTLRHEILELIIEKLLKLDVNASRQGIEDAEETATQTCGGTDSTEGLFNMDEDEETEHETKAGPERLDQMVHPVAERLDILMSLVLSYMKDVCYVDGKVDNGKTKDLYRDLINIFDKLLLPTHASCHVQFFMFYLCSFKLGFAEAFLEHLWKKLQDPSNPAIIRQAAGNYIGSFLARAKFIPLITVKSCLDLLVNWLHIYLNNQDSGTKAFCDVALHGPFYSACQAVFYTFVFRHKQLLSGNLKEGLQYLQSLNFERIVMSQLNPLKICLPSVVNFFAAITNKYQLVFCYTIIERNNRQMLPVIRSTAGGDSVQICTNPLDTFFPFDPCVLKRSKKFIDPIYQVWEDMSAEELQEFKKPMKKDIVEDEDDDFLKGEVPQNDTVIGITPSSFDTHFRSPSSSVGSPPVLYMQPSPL

binding: no binding
Molecule: TIF-IA (from UniProt Q9NYV6 1-651)

binding: binds
B1: TAF1A, a subunit of selective factor 1 (SL1) (protein, UniProt Q15573 1-450)
chain: MSDFSEELKGPVTDDEEVETSVLSGAGMHFPWLQTYVETVAIGGKRRKDFAQTTSACLSFIQEALLKHQWQQAAEYMYSYFQTLEDSDSYKRQAAPEIIWKLGSEILFYHPKSNMESFNTFANRMKNIGVMNYLKISLQHALYLLHHGMLKDAKRNLSEAETWRHGENTSSREILINLIQAYKGLLQYYTWSEKKMELSKLDKDDYAYNAVAQDVFNHSWKTSANISALIKIPGVWDPFVKSYVEMLEFYGDRDGAQEVLTNYAYDEKFPSNPNAHIYLYNFLKRQKAPRSKLISVLKILYQIVPSHKLMLEFHTLLRKSEKEEHRKLGLEVLFGVLDFAGCTKNITAWKYLAKYLKNILMGNHLAWVQEEWNSRKNWWPGFHFSYFWAKSDWKEDTALACEKAFVAGLLLGKGCRYFRYILKQDHQILGKKIKRMKRSVKKYSIVNPRL

From PMC12514575
